# Data source: PubChem BioAssay AID504784 (Drosophila RNAi Screening Center, 2011)
# Screen: 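Search for regulators of lipid droplet storage in oleate-fed fly cells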 (primary screen)
# Cells: Drosophila Kc167 embryonic cells
# Reagent: long dsRNA against Drosophila genes, about 250 ng dsRNA per well
# Timing: 4 days
# Conditions: cells fed 400 µM oleic acid bound to BSA
# Measurement: 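Microscope images give a droplet-to-nucleus area ratio, taken as log and converted to a screen-wide B-score; higher values mean greater lipid storage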
# Direction: droplet/nuclear area B-score: higher = more stored lipid (overstorage)
# In all, the deposit lists about 17,000 reagents; shown is an unselected part of those that have a named target and a result. 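Each column is one replicate's B-score; the combined score over replicates was not deposited, so single values may mislead.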 Names joined by + are all predicted targets of the reagent. No sequences are given here.
target,amplicon,"droplet/nuclear area B-score, replicate 1","droplet/nuclear area B-score, replicate 2","droplet/nuclear area B-score, replicate 3"
CG7985,DRSC14128,0.529,0.0903,
CG8508,DRSC16436,-0.72,0.801,
Prosbeta3,DRSC16801,-0.717,0.632,
Eig71Ed,DRSC11151,-0.00664,1.66,
CG5886,DRSC15908,-0.452,,
CG15167,DRSC02468,0.534,-1.8,
CG9915,DRSC21565,-1.03,-1.18,
Den1,DRSC07195,-0.0223,0.823,
hng3,DRSC08367,0.0946,1.95,
CG32119,DRSC09248,0.614,0.00677,
CG32119,DRSC21462,-1.11,-1.29,
CG33969 + fbl,DRSC11886,0.045,-1.24,
gwl,DRSC16305,1.18,-1.24,
U2A,DRSC06445,-2.92,-0.427,
CG3655,DRSC18181,-0.617,0.0319,
CG3655,DRSC18477,-1.55,-1.49,
CG3655,DRSC22688,0.626,0.187,
Ccdc114,DRSC15025,1.14,2.57,
Paip1,DRSC07302,-1.53,3.78,
PAN3,DRSC08190,-1.07,-0.0873,
RhoGAP93B,DRSC15488,-0.774,-1.09,
scf,DRSC08735,0.788,0.15,
z,DRSC18855,0.186,0.00339,
z,DRSC23134,-0.248,-2.04,
SmydA-4,DRSC19390,-2.87,-1.15,0.597
SmydA-4,DRSC21866,-0.0256,-1.95,
PRL-1,DRSC03393,-0.497,-2.41,
HP1b,DRSC18418,-2.33,-0.166,-1.49
Mov10,DRSC07012,-0.164,-0.653,
CG8079,DRSC07070,0.0104,-1.53,
CG8079,DRSC07071,0.971,-0.0414,
CG31806,DRSC02787,1.1,2.62,
CG10147,DRSC09706,-0.724,-1.11,
CG14891,DRSC15013,-1.21,-0.422,
Capa,DRSC15058,-0.000227,,
Sobp,DRSC07312,1.38,-0.394,
Hsp70Bb + Hsp70Ba + Hsp70Bc + 1 more,DRSC21247,4.65,4.57,
Hsp70Bb + Hsp70Ba + Hsp70Bc + 1 more,DRSC21248,3.04,2.56,
CG10700,DRSC02096,-0.0212,0.333,
l(2)05287,DRSC02151,-1.41,-5.62,
l(2)05287,DRSC02152,0.679,0.0381,
Rep,DRSC07526,1.63,0.367,
CG13921,DRSC08390,-1.02,0.112,-0.281
trbl,DRSC11901,-2.03,-0.0354,
Gdap1,DRSC10437,0.653,0.188,
CG15210,DRSC19656,-1.11,0.469,-0.739
CG7179,DRSC03020,-0.683,-1.14,
PsGEF,DRSC18596,-1.36,0.68,
CG9316,DRSC03195,-0.0131,2.08,
CG15611,DRSC06563,1.92,-0.0245,
CG15611,DRSC06564,1.49,-0.984,

Next part (3 carried over from the part before).
target,amplicon,"droplet/nuclear area B-score, replicate 1","droplet/nuclear area B-score, replicate 2","droplet/nuclear area B-score, replicate 3"
CG9316,DRSC03195,-0.0131,2.08,
CG15611,DRSC06563,1.92,-0.0245,
CG15611,DRSC06564,1.49,-0.984,
Gr93a,DRSC14593,0.106,-0.755,
CG8861,DRSC12731,1.67,-0.0549,
CG8861,DRSC16449,-0.428,0.819,
Snmp2,DRSC10228,-1.41,0.614,
Snmp2,DRSC10843,-2.32,0.0368,
CG15741,DRSC19707,-1.08,0.709,-1.97
Efhc1.2,DRSC06027,2.81,2.69,
Blos2,DRSC10147,-0.739,-0.842,
CG8560,DRSC10994,1.39,-1.25,
CG13284,DRSC02256,-0.615,0.264,
EMC7,DRSC07162,-1.45,1.23,
ATPsyngamma,DRSC14094,1.79,-1.23,
Su(var)2-10,DRSC07721,-2.85,0.104,
CG12177,DRSC19437,-1.91,0.159,-1.19
CG12177,DRSC21524,-1.27,-0.366,
CG10068,DRSC12508,0.528,-2.03,
Ankrd49,DRSC01894,-0.737,1.44,
dre4,DRSC08714,-0.639,-0.51,
Hsc70-3,DRSC20253,3.32,4.58,8.16
Atg13,DRSC16228,-0.0478,0.0259,
kay,DRSC13962,-0.0905,-0.674,
kay,DRSC15048,-0.311,-3.87,
kay,DRSC16977,-0.422,-0.688,
CG9689,DRSC18440,-0.33,-1.07,0.575
Sbds,DRSC10992,0.00326,1.98,
CG10841,DRSC14271,-0.0743,9.16,
Gagr,DRSC10441,0.00509,0.728,0.013
Hex-A,DRSC18259,-1.9,-3.65,-3.32
SelR,DRSC16071,-1.16,2.31,
Prosbeta2R2,DRSC12193,-1.06,1.08,
Rift,DRSC14330,0.285,-0.933,
CG14694,DRSC14917,-1.17,0.377,
